Results taken from the supplement of paper PMC10849652.
Some of the results follow.

Sequences of proteins named here, by UniProt entry; tags and fusion partners are left off. A change or cut given only in a name is not applied to a line headed by its entry.
UniProt Q0P651: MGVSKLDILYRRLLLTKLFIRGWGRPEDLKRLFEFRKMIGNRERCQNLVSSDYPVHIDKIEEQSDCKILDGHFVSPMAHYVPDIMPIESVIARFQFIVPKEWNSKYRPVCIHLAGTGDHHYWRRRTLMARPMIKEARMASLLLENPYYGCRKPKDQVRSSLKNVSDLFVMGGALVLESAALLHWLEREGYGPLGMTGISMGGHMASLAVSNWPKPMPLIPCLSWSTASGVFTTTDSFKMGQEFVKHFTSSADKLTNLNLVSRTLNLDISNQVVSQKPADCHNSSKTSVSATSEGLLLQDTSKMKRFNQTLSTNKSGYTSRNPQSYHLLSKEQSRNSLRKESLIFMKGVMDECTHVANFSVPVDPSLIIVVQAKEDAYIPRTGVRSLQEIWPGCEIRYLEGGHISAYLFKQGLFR
UniProt Q8N961, whole entry, looked up: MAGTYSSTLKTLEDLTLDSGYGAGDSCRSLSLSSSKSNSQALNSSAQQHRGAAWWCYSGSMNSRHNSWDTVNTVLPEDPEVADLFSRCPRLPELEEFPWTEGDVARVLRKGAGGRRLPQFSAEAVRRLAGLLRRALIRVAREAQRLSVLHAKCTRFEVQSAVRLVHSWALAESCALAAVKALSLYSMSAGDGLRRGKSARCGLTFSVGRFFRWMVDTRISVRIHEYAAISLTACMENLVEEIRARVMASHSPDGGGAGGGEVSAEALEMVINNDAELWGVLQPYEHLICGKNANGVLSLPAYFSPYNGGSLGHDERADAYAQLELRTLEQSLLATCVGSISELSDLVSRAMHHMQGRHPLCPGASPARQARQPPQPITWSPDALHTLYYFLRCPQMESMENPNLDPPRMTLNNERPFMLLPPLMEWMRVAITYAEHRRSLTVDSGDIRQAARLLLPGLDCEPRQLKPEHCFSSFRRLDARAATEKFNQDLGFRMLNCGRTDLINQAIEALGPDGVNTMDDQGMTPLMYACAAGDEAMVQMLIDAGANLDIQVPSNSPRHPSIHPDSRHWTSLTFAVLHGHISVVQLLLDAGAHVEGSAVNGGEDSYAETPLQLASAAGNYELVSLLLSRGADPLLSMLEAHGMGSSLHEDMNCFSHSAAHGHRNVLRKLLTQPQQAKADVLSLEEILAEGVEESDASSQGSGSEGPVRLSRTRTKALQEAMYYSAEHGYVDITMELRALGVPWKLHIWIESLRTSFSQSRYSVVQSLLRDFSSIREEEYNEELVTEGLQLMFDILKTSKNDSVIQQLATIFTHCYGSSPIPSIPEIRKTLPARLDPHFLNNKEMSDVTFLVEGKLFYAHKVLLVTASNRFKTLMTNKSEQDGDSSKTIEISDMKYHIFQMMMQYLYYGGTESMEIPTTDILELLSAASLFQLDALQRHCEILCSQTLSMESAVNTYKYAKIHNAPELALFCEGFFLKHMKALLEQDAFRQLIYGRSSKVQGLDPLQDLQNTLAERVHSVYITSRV
UniProt Q15027: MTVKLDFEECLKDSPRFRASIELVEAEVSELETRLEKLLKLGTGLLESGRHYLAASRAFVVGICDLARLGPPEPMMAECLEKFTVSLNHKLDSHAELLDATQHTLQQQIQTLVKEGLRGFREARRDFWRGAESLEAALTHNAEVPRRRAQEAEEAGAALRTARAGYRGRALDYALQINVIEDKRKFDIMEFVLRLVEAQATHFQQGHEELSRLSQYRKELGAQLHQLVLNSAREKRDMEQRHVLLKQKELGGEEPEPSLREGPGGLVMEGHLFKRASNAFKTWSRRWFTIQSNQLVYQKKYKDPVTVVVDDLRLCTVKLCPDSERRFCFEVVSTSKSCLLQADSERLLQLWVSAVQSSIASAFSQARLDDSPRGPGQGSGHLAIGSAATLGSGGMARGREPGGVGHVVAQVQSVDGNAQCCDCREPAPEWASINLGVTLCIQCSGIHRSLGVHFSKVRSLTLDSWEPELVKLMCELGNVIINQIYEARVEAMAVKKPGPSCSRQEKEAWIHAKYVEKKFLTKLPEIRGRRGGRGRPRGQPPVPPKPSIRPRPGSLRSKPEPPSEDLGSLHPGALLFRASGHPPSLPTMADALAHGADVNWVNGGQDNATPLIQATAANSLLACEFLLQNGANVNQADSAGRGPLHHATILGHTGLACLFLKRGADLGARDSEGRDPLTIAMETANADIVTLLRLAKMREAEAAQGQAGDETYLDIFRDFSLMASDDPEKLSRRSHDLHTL
UniProt Q8TB40: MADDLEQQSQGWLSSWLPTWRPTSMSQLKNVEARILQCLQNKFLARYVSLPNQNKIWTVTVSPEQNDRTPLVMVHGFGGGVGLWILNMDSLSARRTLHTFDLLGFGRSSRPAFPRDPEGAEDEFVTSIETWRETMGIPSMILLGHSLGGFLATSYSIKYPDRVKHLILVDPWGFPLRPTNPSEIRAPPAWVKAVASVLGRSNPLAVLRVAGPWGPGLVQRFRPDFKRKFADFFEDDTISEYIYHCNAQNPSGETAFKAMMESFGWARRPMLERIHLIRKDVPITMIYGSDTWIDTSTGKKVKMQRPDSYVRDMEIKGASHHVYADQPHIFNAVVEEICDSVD
UniProt P00519, whole entry, looked up: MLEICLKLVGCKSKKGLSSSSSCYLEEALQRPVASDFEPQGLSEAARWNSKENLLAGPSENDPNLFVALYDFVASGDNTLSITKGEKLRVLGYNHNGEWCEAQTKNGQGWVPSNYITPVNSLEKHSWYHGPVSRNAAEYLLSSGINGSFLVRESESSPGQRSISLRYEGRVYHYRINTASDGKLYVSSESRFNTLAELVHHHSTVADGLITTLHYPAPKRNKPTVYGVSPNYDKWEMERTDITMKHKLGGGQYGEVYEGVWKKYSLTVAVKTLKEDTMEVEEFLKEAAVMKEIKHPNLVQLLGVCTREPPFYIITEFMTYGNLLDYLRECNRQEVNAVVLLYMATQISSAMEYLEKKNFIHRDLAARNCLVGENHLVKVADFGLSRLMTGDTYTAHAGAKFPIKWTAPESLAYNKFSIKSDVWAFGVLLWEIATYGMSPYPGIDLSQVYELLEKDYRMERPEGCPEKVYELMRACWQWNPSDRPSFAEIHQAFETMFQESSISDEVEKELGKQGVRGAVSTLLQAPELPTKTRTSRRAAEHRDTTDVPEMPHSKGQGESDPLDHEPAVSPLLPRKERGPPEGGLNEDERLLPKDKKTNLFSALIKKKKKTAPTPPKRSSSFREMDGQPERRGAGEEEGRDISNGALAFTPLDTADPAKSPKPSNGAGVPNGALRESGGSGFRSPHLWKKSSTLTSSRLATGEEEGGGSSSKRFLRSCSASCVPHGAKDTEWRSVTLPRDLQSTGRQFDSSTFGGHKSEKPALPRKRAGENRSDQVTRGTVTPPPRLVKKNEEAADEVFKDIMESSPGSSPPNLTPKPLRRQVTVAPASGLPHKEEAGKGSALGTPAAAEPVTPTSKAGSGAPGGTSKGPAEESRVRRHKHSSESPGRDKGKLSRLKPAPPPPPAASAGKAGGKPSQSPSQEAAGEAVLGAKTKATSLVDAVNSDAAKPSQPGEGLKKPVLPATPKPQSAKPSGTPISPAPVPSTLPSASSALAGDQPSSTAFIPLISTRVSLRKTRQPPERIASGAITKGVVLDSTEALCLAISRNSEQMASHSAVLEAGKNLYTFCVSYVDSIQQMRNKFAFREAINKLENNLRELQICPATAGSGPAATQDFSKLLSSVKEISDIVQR
UniProt Q9BTE6: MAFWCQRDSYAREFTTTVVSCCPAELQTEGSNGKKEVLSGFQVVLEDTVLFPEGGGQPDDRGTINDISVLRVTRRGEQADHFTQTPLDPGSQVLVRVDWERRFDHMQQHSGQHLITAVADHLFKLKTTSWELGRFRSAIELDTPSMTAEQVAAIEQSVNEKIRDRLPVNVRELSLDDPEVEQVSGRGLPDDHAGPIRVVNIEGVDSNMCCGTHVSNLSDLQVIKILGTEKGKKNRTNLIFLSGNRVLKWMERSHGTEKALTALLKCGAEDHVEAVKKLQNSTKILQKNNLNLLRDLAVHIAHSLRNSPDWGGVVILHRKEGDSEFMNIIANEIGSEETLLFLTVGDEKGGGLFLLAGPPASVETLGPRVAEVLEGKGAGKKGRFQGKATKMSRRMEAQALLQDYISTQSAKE
UniProt Q9UNQ0: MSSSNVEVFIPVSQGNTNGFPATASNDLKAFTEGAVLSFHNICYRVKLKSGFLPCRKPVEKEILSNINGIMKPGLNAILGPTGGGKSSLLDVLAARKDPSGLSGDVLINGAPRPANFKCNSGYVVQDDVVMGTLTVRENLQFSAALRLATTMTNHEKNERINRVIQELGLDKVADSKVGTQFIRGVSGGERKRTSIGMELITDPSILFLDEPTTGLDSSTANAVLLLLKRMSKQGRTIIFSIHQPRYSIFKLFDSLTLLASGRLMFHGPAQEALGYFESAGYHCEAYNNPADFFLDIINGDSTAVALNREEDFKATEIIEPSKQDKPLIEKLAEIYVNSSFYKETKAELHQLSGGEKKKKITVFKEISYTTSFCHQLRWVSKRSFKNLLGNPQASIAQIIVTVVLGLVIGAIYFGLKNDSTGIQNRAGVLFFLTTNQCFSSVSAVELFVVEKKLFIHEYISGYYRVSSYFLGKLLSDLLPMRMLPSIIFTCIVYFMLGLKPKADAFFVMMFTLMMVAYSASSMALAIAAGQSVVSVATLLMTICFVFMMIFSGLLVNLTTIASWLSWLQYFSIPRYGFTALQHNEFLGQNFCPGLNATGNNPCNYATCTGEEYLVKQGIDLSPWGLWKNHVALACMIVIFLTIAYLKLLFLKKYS

Assays:
Test in all cases: log2 fold change, soluble protein after heating vs DMSO (PISA); higher = thermal stabilisation; K562 lysate, 10 uM; active = over 0.2 and 3.5 SD of the protein, either way, in both replicates (recomputed)
[1] = compound: CNC(=O)C1=CC=CC=C1NC2=NC(=NC=C2Cl)NC3=C(C=C(C=C3)N4CCOCC4)OC
How it was run: (§1)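 Values give the log-two fold change in thermal stability against solvent controls, from duplicates. Crude K562 extract at 1 mg/mL protein, made by dounce homogenisation in PBS pH 7.4 with 1 mM MgCl2, was treated with 10 μM compound for 30 min. After 3 min heating across 48°C-58°C, aliquots were pooled, adjusted to 0.5% NP-40 at 4°C and centrifuged at 21,000xg for 90 min. The supernatant was measured by TMTpro 16plex LC-MS/MS with channel sums equalised.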

encorafenib = compound: COC(=O)N[C@@H](C)CNc1nccc(-c2cn(C(C)C)nc2-c2cc(Cl)cc(NS(C)(=O)=O)c2F)n1 [encorafenib]
How it was run: as §1

[2] = compound: COC(=O)[C@H](CCSC)NC(=O)C1=C(C=C(C=C1)NC[C@H](CS)N)C2=CC=CC=C2
How it was run: as §1

alisertib = compound: COc1cc(Nc2ncc3c(n2)-c2ccc(Cl)cc2C(c2c(F)cccc2OC)=NC3)ccc1C(=O)O [alisertib]
How it was run: as §1

gefitinib = compound: COc1cc2ncnc(Nc3ccc(F)c(Cl)c3)c2cc1OCCCN1CCOCC1 [gefitinib]
How it was run: as §1

tozasertib = compound: Cc1cc(Nc2cc(N3CCN(C)CC3)nc(Sc3ccc(NC(=O)C4CC4)cc3)n2)n[nH]1 [tozasertib]
How it was run: as §1

alvocidib = compound: CN1CC[C@H](c2c(O)cc(O)c3c(=O)cc(-c4ccccc4Cl)oc23)[C@H](O)C1 [alvocidib]
How it was run: as §1

Tubastatin A = compound: CN1CCc2c(c3ccccc3n2Cc2ccc(C(=O)NO)cc2)C1 [Tubastatin A]
How it was run: as §1

[3] = compound: C[C@H](C1=CC=C(C=C1)C(=O)NC2=C3C=CNC3=NC=C2)N
How it was run: as §1

gandotinib = compound: Cc1cc(Nc2cc(CN3CCOCC3)c3nc(C)c(Cc4ccc(Cl)cc4F)n3n2)n[nH]1 [gandotinib]
How it was run: as §1

[4] = compound: Cc1cccc(CC(=O)N2CCc3c2ccc(-c2cn(C)c4ncnc(N)c24)c3F)n1
How it was run: as §1

pictilisib = compound: CS(=O)(=O)N1CCN(Cc2cc3nc(-c4cccc5[nH]ncc45)nc(N4CCOCC4)c3s2)CC1 [pictilisib]
How it was run: as §1

bafetinib = compound: Cc1ccc(NC(=O)c2ccc(CN3CC[C@H](N(C)C)C3)c(C(F)(F)F)c2)cc1Nc1nccc(-c2cncnc2)n1 [bafetinib]
How it was run: as §1

crizotinib = compound: C[C@@H](Oc1cc(-c2cnn(C3CCNCC3)c2)cnc1N)c1c(Cl)ccc(F)c1Cl [crizotinib]
How it was run: as §1

doramapimod = compound: Cc1ccc(-n2nc(C(C)(C)C)cc2NC(=O)Nc2ccc(OCCN3CCOCC3)c3ccccc23)cc1 [doramapimod]
How it was run: as §1

defactinib = compound: CNC(=O)c1ccc(Nc2ncc(C(F)(F)F)c(NCc3nccnc3N(C)S(C)(=O)=O)n2)cc1 [defactinib]
How it was run: as §1

[5] = compound: CNc1nc(-c2ccc3c(N)n[nH]c3c2)cc(N2C[C@@H](C(=O)NC3CCCCC3)CC[C@H]2C)n1
How it was run: as §1

[6] = compound: COc1cc2nc(-c3cc(F)ccc3O)nc(N[C@@H]3CNC[C@H]3C(C)(C)O)c2cc1OC
How it was run: as §1

lapatinib = compound: CS(=O)(=O)CCNCc1ccc(-c2ccc3ncnc(Nc4ccc(OCc5cccc(F)c5)c(Cl)c4)c3c2)o1 [lapatinib]
How it was run: as §1

duvelisib = compound: C[C@H](Nc1ncnc2nc[nH]c12)c1cc2cccc(Cl)c2c(=O)n1-c1ccccc1 [duvelisib]
How it was run: as §1

Measured: log2 fold change

ABHD18 (UniProt Q0P651)
inactive: [1] 0.148 | encorafenib 0.045 | [2] 0.109 | alisertib -0.155 | gefitinib 0.049 | tozasertib -0.019

ACAT1, A0A5F9ZHJ0
inactive: alvocidib -0.023 | Tubastatin A 0.081 | alisertib -0.035 | gefitinib -0.056 | [3] -0.151 | gandotinib -0.075 | [4] 0.208

ABTB2 (UniProt Q8N961)
inactive: alvocidib -0.463 | Tubastatin A -0.137 | pictilisib 0.1 | [3] -0.457 | gandotinib 0.027 | bafetinib -0.315 | [4] 0.228

ACAP1 (UniProt Q15027)
inactive: alvocidib 0.093 | crizotinib 0.235 | [3] 0.188 | gandotinib -0.045 | doramapimod 0.042 | [4] 0.021

ABHD4 (UniProt Q8TB40)
inactive: defactinib -0.02 | alisertib -0.049 | gefitinib -0.006

ABL1 isoform 2 (UniProt P00519)
inactive: Tubastatin A -0.091 | [1] 0.044 | defactinib -0.023 | [5] -0.011 | encorafenib 0.039 | [2] 0.071 | alisertib 0.019 | [6] -0.011 | lapatinib -0.01 | pictilisib -0.094 | [3] 0.135 | duvelisib 0.004 | gandotinib -0.04 | [4] -0.048

AARSD1 (UniProt Q9BTE6)
inactive: alvocidib 0.043 | [5] -0.026 | encorafenib -0.318 | [2] 0.199 | alisertib -0.11 | [6] -0.196 | gefitinib 0.017 | lapatinib -0.128 | pictilisib 0.012 | [3] -0.273 | duvelisib 0.093 | gandotinib 0.478 | tozasertib -0.263 | bafetinib 0.012 | [4] -0.034

ABCE1 (UniProt H0Y990)
inactive: alvocidib 0.062 | Tubastatin A 0.097 | [1] 0.208 | defactinib -0.135 | encorafenib -0.097 | [2] -0.062 | pictilisib 0.054 | crizotinib 0.003 | [3] 0.139 | gandotinib -0.068 | tozasertib -0.094 | doramapimod 0.02 | bafetinib -0.234 | [4] -0.104

ABCG2 (UniProt Q9UNQ0)
inactive: alvocidib -0.231 | [3] -0.019 | gandotinib -0.003 | [4] 0.174
